{"source": "PubChem BioAssay AID1487", "about": "(National Center for Advancing Translational Sciences (NCATS), 2009)", "note": "The whole screen tested about 200,000 compounds, of which about 25 (0.01%) were called active. The inconclusive results got no clear call from the source; some entries with a clear call stand among them for comparison. The call rests on the fitted dose curve; in most records, active means well fitted inhibition curve with a large enough effect in the signal ratio, with a control signal flat (not every such curve was filed as active); inconclusive means small, poorly fitted or top-dose-only effect, or effect the other way, or a change in a side signal; inactive means flat fitted curve, though single readings scatter; the % refers to the signal ratio. A potency beside an inconclusive call is a rough fit, not a confirmed value. On the % scale 0 is the no-effect control and ±100 the full control effect; potency means the concentration at half of the fitted maximal effect."}
{"assay": "qHTS Assay for Modulators of Lamin A Splicing", "conditions": "HeLa LMNA splicing GFP/RFP minigene ratio, 48 h; ratio change, negative = inhibition: at 46.1 µM (top of the series) unless noted", "procedure,_shortened": "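S3 HeLa cells stably expressing lamin A-EGFP splicing minigene plus DsRed2, 600 cells/well, 48 h compound exposure at 37C. Laser-scanning cytometry; analysed as GFP (500-530 nm)/RFP (575-640 nm) total intensity ratio; 0.5% DMSO vehicle.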"}
{"compound": "COc1ccc2sc3ccccc3c(=O)c2c1OC", "ratio change, negative = inhibition": "inactive"}
{"compound": "Cc1noc(C)c1-c1nccc(NCc2ccccc2)n1", "ratio change, negative = inhibition": "inconclusive: -27.3%"}
{"compound": "O=C(COC(=O)CNC(=O)c1sc2ccccc2c1Cl)Nc1c(Cl)cc(Cl)cc1Cl", "ratio change, negative = inhibition": "inactive"}
{"compound": "O=C(CSc1ncnc2ccccc12)NCC(=O)c1ccccc1", "ratio change, negative = inhibition": "inconclusive: -26.4% [at 46 µM]"}
{"compound": "COc1cccc(/C=N/Nc2ncnc3scc(-c4ccccc4)c23)c1O", "Potency": "inconclusive: 25.1 µM [fluorescent, single point]"}
{"compound": "Cc1ccc(CSc2nc3c(cc2C#N)CCC3)cc1", "ratio change, negative = inhibition": "inconclusive: -0.181%"}
{"compound": "N/C(=N\\NC(=O)c1cccs1)c1cc2ccccc2oc1=O", "ratio change, negative = inhibition": "inactive"}
{"compound": "CCn1c(=N)n(CC(O)COc2ccccc2)c2ccccc21", "note": "(stereo unspecified)", "ratio change, negative = inhibition": "inconclusive: 0.173% [at 46 µM]"}
{"compound": "CC12CC(NC(=O)N1CCc1ccccc1)c1cc(Cl)ccc1O2", "note": "(stereo unspecified)", "Potency": "inconclusive: 11.2 µM [fluorescent, partial curve]"}
{"compound": "CCn1cc(C(=O)N2CCc3ccccc3C2)c(=O)c2cc(S(=O)(=O)N3CCCCC3)ccc21", "ratio change, negative = inhibition": "inactive"}
{"compound": "CCOC(=O)N1CCN(S(=O)(=O)/C=C/c2ccccc2)CC1", "ratio change, negative = inhibition": "inactive"}
{"compound": "CCCNC(=O)Cn1cnc2sc(C(=O)N3CCCC(C(=O)OCC)C3)c(C)c2c1=O", "note": "(stereo unspecified)", "ratio change, negative = inhibition": "inconclusive: 1.49%"}
{"compound": "COc1ccc(N(CC(=O)NCc2cccs2)S(=O)(=O)c2c(C)nn(C)c2C)cc1", "ratio change, negative = inhibition": "inactive"}
{"compound": "Cn1cc(CNC(=O)c2cc(-c3ccccc3)nc3ccc(Br)cc23)cn1", "ratio change, negative = inhibition": "inactive"}
{"compound": "Clc1ccc(Cc2noc(CN3CCN(c4ccccc4)CC3)n2)c(Cl)c1", "ratio change, negative = inhibition": "inconclusive: -37.4%"}
{"compound": "O=C(CC(Nc1ccc(F)cc1)c1ccccc1)c1ccccc1", "note": "(stereo unspecified)", "Potency": "inconclusive: 22.4 µM [inhibitor, single point]"}
{"compound": "Cc1ccc(C(=O)N2CCSC2=S)cc1", "ratio change, negative = inhibition": "inactive"}
{"compound": "CCCCN(CC)CCCNC(=O)c1ccc2c(c1)NC(=O)CN2C", "ratio change, negative = inhibition": "inconclusive: -20.3% [at 46 µM]"}
{"compound": "CCOC(=O)c1noc2ncn(CC(=O)Nc3ccccc3OC)c(=O)c12", "ratio change, negative = inhibition": "inconclusive: -10.4% [at 46 µM]"}
{"compound": "COC(=O)c1cc2nc(-c3ccc(OC)c(OC)c3)cc(C(F)(F)F)n2n1", "ratio change, negative = inhibition": "inconclusive: 9.69%"}
{"compound": "CCCCOc1ccc(-c2nnn(CC(=O)Nc3ncc(CC(=O)OCC)s3)n2)cc1", "Potency": "inconclusive: 35.5 µM [inhibitor, single point]"}
{"compound": "CC(C)CCn1c(SCc2cccc(F)c2)nc2ccsc2c1=O", "ratio change, negative = inhibition": "inconclusive: 5.34% [at 46 µM]"}
{"compound": "Cn1cc(-c2cc3n(n2)CCC(=O)N3CCCC(=O)NCc2ccccc2Cl)c2ccccc21", "ratio change, negative = inhibition": "inconclusive: 2.18% [at 46 µM]"}
{"compound": "CCOC(=O)CNC(=O)c1ccc(OCC(F)(F)F)cc1", "ratio change, negative = inhibition": "inactive: 14.9% [at 9.22 µM]"}
{"compound": "COc1ccccc1C(=O)Nc1nc(-c2ccc3c(c2)OCCO3)cs1", "ratio change, negative = inhibition": "inconclusive: 21.5% [at 9.22 µM]"}
{"compound": "O=C(CSc1nnnn1-c1ccc2c(c1)OCCO2)OC1CCCCC1", "ratio change, negative = inhibition": "inactive"}
{"compound": "Cc1ccc(NC2=CC(=O)C(=O)c3ccccc32)cc1", "Potency": "inconclusive: 35.5 µM [cytotoxic, single point]"}
{"compound": "CCOc1ccc(C(=S)N2CCOCC2)cc1OCC", "ratio change, negative = inhibition": "inactive"}
{"compound": "COC(=O)c1c(-c2cccs2)csc1NC(=O)c1cc(OC)cc(OC)c1", "ratio change, negative = inhibition": "inactive"}
{"compound": "O=C(CN1CCC(O)(c2ccccc2)CC1)Nc1ccc2c(c1)OCCO2", "ratio change, negative = inhibition": "inconclusive: -11% [at 46 µM]"}
{"compound": "O=c1cc(-c2ccccc2Cl)oc2cc(O)cc(O)c12", "ratio change, negative = inhibition": "inconclusive: 0.176%"}
{"compound": "CC(=O)Nc1ncc2c(n1)CC(c1ccco1)CC2=O", "note": "(stereo unspecified)", "ratio change, negative = inhibition": "inactive"}
{"compound": "CCCOc1cccc(OCC(=O)Nc2nc3ccccc3[nH]2)c1", "ratio change, negative = inhibition": "inconclusive: 2.43%"}
{"compound": "COc1ccc(NC(=O)CSc2nc3ccsc3c(=O)n2CCCCCC(=O)O)cc1", "ratio change, negative = inhibition": "inconclusive: 10.1% [at 9.22 µM]"}
{"compound": "Clc1cccc(-n2ncc3c(NCCCc4ccccc4)ncnc32)c1", "ratio change, negative = inhibition": "inconclusive: -32.3% [at 46 µM]"}
{"compound": "Cc1ccc(N(CN2CCCC2=O)C(=O)c2ccccc2)cc1", "ratio change, negative = inhibition": "inconclusive: 16.9% [at 46 µM]"}
{"compound": "Cc1cc(S(=O)(=O)Nc2cccc(-c3ccc(N4CCOCC4)nn3)c2)c(C)cc1Cl", "ratio change, negative = inhibition": "inconclusive: -17.2% [at 46 µM]"}
{"compound": "CC(=O)Nc1ccc(OCC(O)Cn2ccnc2)cc1", "note": "(stereo unspecified)", "ratio change, negative = inhibition": "inconclusive: 22.8% [at 46 µM]"}
{"compound": "CCCC1O[C@@H]2C[C@H]3[C@@H]4CCC5=CC(=O)C=C[C@]5(C)[C@H]4[C@@H](O)C[C@]3(C)[C@]2(C(=O)CO)O1", "note": "(stereo partly specified)", "ratio change, negative = inhibition": "inconclusive: -0.0848%"}
{"compound": "Cc1ccc(C)c(CN2C(=O)c3ccccc3Sc3ccc(C(=O)NCc4ccco4)cc32)c1", "Potency": "inconclusive: 11.2 µM [inhibitor, partial curve, poor fit]"}
{"compound": "CCN(Cc1ccccc1)C(=O)Cn1c(=O)oc2ccccc21", "ratio change, negative = inhibition": "inconclusive: 4.64% [at 46 µM]"}
{"compound": "CCC(C(=O)OCC(=O)Nc1cc(OC)ccc1OC)c1ccccc1", "note": "(stereo unspecified)", "ratio change, negative = inhibition": "inconclusive: -5.95% [at 46 µM]"}
{"compound": "CCN1C(=O)/C(=C\\c2ccc(-c3ccc([N+](=O)[O-])cc3OC)o2)SC1=Nc1cccc(C(=O)O)c1", "ratio change, negative = inhibition": "inconclusive: -18.4% [at 46 µM]"}
{"compound": "COc1ccc(NS(=O)(=O)c2cc(NC(=O)CC3CCCC3)ccc2N2CCOCC2)cc1", "ratio change, negative = inhibition": "inactive"}
{"compound": "O=C(Oc1ccc(Nc2ncnc3ccccc23)cc1)c1cccnc1", "ratio change, negative = inhibition": "inconclusive: -31.8% [at 46 µM]"}
{"compound": "Cc1cc(C)c2nc(C(F)(F)F)nc(N3CC(C)OC(C)C3)c2c1", "note": "(stereo unspecified)", "ratio change, negative = inhibition": "inconclusive: 12.5%"}
{"compound": "O=C(NCC(c1ccc(F)cc1)N1CCOCC1)c1cccc(Br)c1", "note": "(stereo unspecified)", "ratio change, negative = inhibition": "inactive"}
{"compound": "Cc1cc(C)nc(/N=C(\\N)Nc2ccccc2-c2ccccc2)n1", "ratio change, negative = inhibition": "inconclusive: -14.8% [at 46 µM]"}
{"compound": "CCCc1oc2ccc(NS(=O)(=O)c3ccc(OC)cc3)cc2c1C(=O)OCC", "ratio change, negative = inhibition": "inconclusive: 299% [at 46 µM]"}
{"compound": "CCC(=O)N1c2nc(C(C)C)nn2C2(CCCCC2)[C@@H]2CCCC[C@@H]21", "ratio change, negative = inhibition": "inactive"}
{"compound": "O=C(NC1(C(F)(F)F)Oc2ccccc2O1)N1CCCC1", "ratio change, negative = inhibition": "inconclusive: -18%"}
{"compound": "CCCCN(C)c1ncnc2c1cnn2-c1cccc(Cl)c1", "Potency": "inconclusive: 35.5 µM [inhibitor, single point]"}
{"compound": "COc1ccccc1CNc1ncnc2nc[nH]c12", "ratio change, negative = inhibition": "inconclusive: -20.5%"}
{"compound": "CC1=CN2C(=N)/C(=C/c3ccco3)C(=O)N=C2S1", "ratio change, negative = inhibition": "inconclusive: 4.59%"}
{"compound": "COc1ccc(-c2csc3nc(-c4cccnc4)nc(Cl)c23)cc1OC", "ratio change, negative = inhibition": "inconclusive: 7.26%"}
{"compound": "COc1ccccc1NC1=C(NC(C)=O)C(=O)c2ccccc2C1=O", "ratio change, negative = inhibition": "inconclusive: -41.2% [at 46 µM]"}
{"compound": "Nc1c2c3c(sc2nc(=O)n1N)CCCC3", "ratio change, negative = inhibition": "inconclusive: -6.52% [at 46 µM]"}
{"compound": "O=C(c1ccc(Br)s1)N1CCN(C/C=C/c2ccccc2)CC1", "Potency": "inconclusive: 35.5 µM [falling, single point]"}
{"compound": "O=C(CN(Cc1ccccc1)S(=O)(=O)c1ccccc1)N/N=C/c1ccc([N+](=O)[O-])cc1", "ratio change, negative = inhibition": "inconclusive: -29.6%"}
{"compound": "O=C(Nc1ccccc1Oc1ccccc1)c1cc([N+](=O)[O-])ccc1Cl", "Potency": "inconclusive: 35.5 µM [falling, single point]"}
{"compound": "COc1cc(/C=C/c2ccc(O)cc2)cc(OC)c1", "ratio change, negative = inhibition": "inconclusive: -8.41% [at 46 µM]"}
{"compound": "CCOC(=O)c1ncn2c1CN(C)C(=O)c1cc(F)ccc1-2", "ratio change, negative = inhibition": "inconclusive: -18.4%"}
{"compound": "CC1CCc2nc(NC(=O)COc3ccc(C(C)(C)C)cc3)sc2C1", "note": "(stereo unspecified)", "ratio change, negative = inhibition": "inconclusive: -49.2% [at 46 µM]"}
{"compound": "O=S(=O)(Nc1cccc(-c2ccc(N3CCCCC3)nn2)c1)c1cccs1", "ratio change, negative = inhibition": "inactive"}
{"compound": "C#CCOC(=O)Nc1cccn(Cc2c(Cl)cccc2Cl)c1=O", "ratio change, negative = inhibition": "inconclusive: 48.7%"}
{"compound": "COc1ccc(NC(=S)N2CCC(N(C)CC3CCCO3)CC2)cc1Cl", "note": "(stereo unspecified)", "ratio change, negative = inhibition": "inactive"}
{"compound": "COc1cc2c(cc1OC)-c1n[nH]c(=S)n1C(C)(C)C2", "ratio change, negative = inhibition": "inactive"}
{"compound": "FC(F)(F)c1cccc(CN2CCCCCC2)c1", "ratio change, negative = inhibition": "inconclusive: -22.2%"}
{"compound": "O=C(C(Cc1ccccc1)N1C(=O)c2ccccc2C1=O)N1CCc2ccccc21", "note": "(stereo unspecified)", "ratio change, negative = inhibition": "inactive"}
{"compound": "O=C1CC(C(=O)N(c2ccc(F)cc2)C(C(=O)NC2CCCC2)c2ccccn2)CS1", "note": "(stereo unspecified)", "ratio change, negative = inhibition": "inactive"}
{"compound": "COC(=O)c1ccc2c(=O)n(-c3ccccc3)c(=S)[nH]c2c1", "ratio change, negative = inhibition": "inconclusive: 0.376% [at 46 µM]"}
{"compound": "CCNc1ncc2nc(-c3cn(C)c4ccccc34)c(=O)n(Cc3ccc(F)cc3)c2n1", "Potency": "inconclusive: 7.94 µM [inhibitor, partial curve]"}
{"compound": "Nc1cc(=O)[nH]c(SCC(=O)Nc2ccccc2Sc2ccc(Cl)cc2)n1", "ratio change, negative = inhibition": "inconclusive: -31.1% [at 46 µM]"}
{"compound": "C/[N+]([O-])=C1\\Cc2ccccc2C1=O", "ratio change, negative = inhibition": "inactive"}
{"compound": "O=c1c2ccccc2nc(COc2ccccc2)n1/N=C/c1cc([N+](=O)[O-])ccc1O", "ratio change, negative = inhibition": "inconclusive: -47.3%"}
{"compound": "CC(C)CC(=O)Nc1ccnc(-c2ccncc2)n1", "ratio change, negative = inhibition": "inactive: -14.1% [at 9.22 µM]"}
{"compound": "COc1ccccc1N1C(=O)CC(Nc2ccc(N3CCOCC3)cc2)C1=O", "note": "(stereo unspecified)", "ratio change, negative = inhibition": "inactive"}
{"compound": "Cc1nnc(SC(C)C(=O)NC2CCCc3ccccc32)n1-c1ccccc1", "note": "(stereo unspecified)", "ratio change, negative = inhibition": "inactive"}
{"compound": "CCOC(=O)c1cc(-c2ccccc2)n(CCC(=O)N2CCN(c3ccc(OC)cc3)CC2)c1C", "Potency": "inconclusive: 35.5 µM [fluorescent, single point]"}
{"compound": "CCOc1ccc(NC(=O)Cc2csc(COc3cccc(C)c3)n2)cc1", "ratio change, negative = inhibition": "inconclusive: 35.5% [at 46 µM]"}
{"compound": "CCc1nc(SCC(=O)N2c3ccccc3CC2C)c2c(C)c(C)sc2n1", "note": "(stereo unspecified)", "Potency": "inconclusive: 3.16 µM [inhibitor, full curve, poor fit]"}
